From the supplement of paper PMC12889115 come the findings set out here.

The experiment concerns Salmonella enterica serovar Typhimurium SL1344. Briefly: bacterial growth OD600 after 18 h with compound and polymyxin B; higher = more bacterial growth (less inhibition). The note with it: 50 µM, Mueller-Hinton broth.

Some of the results follow. These are raw signals, not scaled to a control.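 Primary screen: polymyxin B was added at a level permeabilizing Salmonella outer membranes while sparing inner membranes. DMSO wells, both with and without polymyxin B, established maximum growth. Plate-to-plate variation meant each plate was ranked on its own, and the lowest-OD600 compounds were selected as hits.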

Regarding `O=C(C1CCOCC1)N1CCCC(CCc2cccc(F)c2)C1` (stereo not given), the “bacterial growth OD600” value (polymyxin B 0.75 µg/mL) is 0.701. With `Cc1nn(C)cc1CN(C)C(=O)c1coc(COc2cccc(F)c2F)n1`, for the setting “polymyxin B 1 µg/mL”, the “bacterial growth OD600” value stood at 0.937. As for `C=CCO[C@H]1[C@H](NC(=O)COC)c2ccccc2C12CCN(Cc1c(C)nn(C(C)C)c1C)CC2`, the “bacterial growth OD600” value (polymyxin B 0.75 µg/mL) turned out to be 0.978. With `Cc1cccc(CN2CCCC(O)(CNCc3ccon3)C2=O)c1` (stereo not given), the “bacterial growth OD600” value (polymyxin B 0.75 µg/mL) is 1. Regarding `O=C1N(Cc2ccc(F)c(F)c2)CCCC1(O)CNC1CCCCCC1` (stereo not given), for the setting “polymyxin B 1 µg/mL”, the “bacterial growth OD600” value is 0.413. As to `COCc1ccc(C(=O)Nc2ccc(-c3nc(CNC(=O)c4ccc5c(c4)OCO5)c(C)o3)cc2)o1`, the “bacterial growth OD600” value (polymyxin B 0.75 µg/mL) came to 0.761.

On to `COC(=O)c1c(OCc2ccsc2)cc(=O)n2c1CCN(C(=O)C1Cc3ccccc3O1)CC2` (stereo not given), for which the “bacterial growth OD600” value (polymyxin B 0.75 µg/mL) stood at 0.783. Turning to `CCC(=O)NC1CC(=O)N(Cc2cccc3ccccc23)C1` (stereo not given), the “bacterial growth OD600” value (polymyxin B 1 µg/mL) came to 1.01. For the molecule `CCOCC(O)CNC(=O)c1ccc(OC2CCN(CC(C)(C)C)CC2)c(Cl)c1` (stereo not given), the “bacterial growth OD600” value (polymyxin B 1 µg/mL) was found to be 0.863. Turning to `COc1ccc(CCN(CC2CCN(C)CC2)C(=O)C2CC23CCC3)cc1` (stereo not given), the “bacterial growth OD600” value (polymyxin B 1 µg/mL) is 0.934. Consider `Clc1ccc(-c2noc(CN(Cc3ccncc3)CC3CCCO3)n2)cc1` (stereo not given), for which the “bacterial growth OD600” value (polymyxin B 0.75 µg/mL) stood at 0.506. Same read-out and setting: with `Cc1nc(C)c(CN2CCC(C3CCN(CC(C)(C)C)C3)CC2)nc1C` (stereo not given) the figure was 0.932. Take `COc1cc(NC(=O)CCC2CCCN(C(=O)c3ccoc3)C2)cc(OC)c1` (stereo not given): the “bacterial growth OD600” value (polymyxin B 1 µg/mL) turned out to be 0.877. `CS(=O)(=O)N1CCC(C2CCN(Cc3ccc(Cl)cc3)C2)CC1` (stereo not given): the “bacterial growth OD600” value (polymyxin B 0.75 µg/mL) came out at 0.752. On the same count and under the same terms, with `Cc1ccc(C(=O)Nc2cnn(-c3ccc(C(=O)N4CCC(c5ccc(F)cc5)C4)cc3)c2)c(C)c1` (stereo not given) the figure was 0.783.

Regarding `COc1ccc(-c2nn(-c3ccccc3C)cc2CN2CCC(OC)CC2)cc1F`, for the setting “polymyxin B 1 µg/mL”, the “bacterial growth OD600” value was 0.735. On to `COc1cccc(-c2cnc(-c3ccncc3)nc2C2CCN(Cc3cn(C)c4ccccc34)CC2)c1`, for which the “bacterial growth OD600” value (polymyxin B 0.75 µg/mL) is 0.023. As for `Cc1cc(C(=O)N2CCCC(CNS(=O)(=O)c3cccs3)C2)c2ccc(F)cc2n1` (stereo not given), the “bacterial growth OD600” value (polymyxin B 1 µg/mL) came out at 0.862.

With `COCC1CCCN(c2nc3nonc3nc2NCc2cccs2)C1` (stereo not given), the “bacterial growth OD600” value (polymyxin B 1 µg/mL) was 0.875. Same read-out and setting: the figure for `CC#CCN(Cc1ccco1)C(=O)c1cn(CC2COc3ccccc3O2)nn1` (stereo not given) is 0.7; for `COc1ccc(-c2nc(CN3CCC(Oc4ccccc4F)CC3)c(C)o2)cc1OC` it is 0.745. In the case of `Cc1cc(C)n(CCCN2CC[C@@H](N3CCN(c4ccccn4)CC3)[C@H](O)C2)n1`, for the setting “polymyxin B 0.75 µg/mL”, the “bacterial growth OD600” value was 0.836. As to `CSCCC(=O)N1CCCC(Nc2ccc(C(C)C)cc2)C1` (stereo not given), the “bacterial growth OD600” value (polymyxin B 1 µg/mL) was 0.92.

Regarding `COc1cccc(-n2cc(CN(C)C(=O)c3cn(Cc4ccccc4C)nn3)cn2)c1`, where the note is “polymyxin B 1 µg/mL”, the “bacterial growth OD600” value was 0.589. The same measure, in the same setting: the figure for `CCc1ccc(CN(C)CC2CCCN(CCc3ccc(OC)cc3)C2)o1` (stereo not given) is 0.964; for `COc1ccc(CN2CCN(Cc3cnc(-c4cccc(C)c4)nc3)CC2CCO)cc1C` (stereo not given) it is 0.909. Regarding `COc1ccc(CN2CCOc3ccc(C(O)Cc4ccccc4)cc3C2)c(Cl)c1OC` (stereo not given), the “bacterial growth OD600” value (polymyxin B 0.75 µg/mL) turned out to be 0.669. As for `COc1ccc(C(=O)NCC2CCCCC2)cc1OC1CCN(C(C)=O)CC1`, the “bacterial growth OD600” value (polymyxin B 1 µg/mL) came to 1.06. Same read-out and setting: the figure for `CC1=C(C(=O)N2CCCC(C(=O)c3ccc(-c4ccccc4)cc3)C2)OCCO1` (stereo not given) is 0.004. Turning to `O=C(Nc1ccc(N2CCC(NC(CCn3ccnc3)c3ccccc3)CC2)cc1)c1ccccc1F` (stereo not given), for the setting “polymyxin B 0.75 µg/mL”, the “bacterial growth OD600” value is 0.832.
